Experimental data reported in patent US12723100.
Results are given in words; binding and its absence hold for the method and conditions named.

Molecular target: rat Nectin-4 (rat)
Assay: condition: binding EC50 about 133 nM were indicated as "-"; flow cytometry, transfected 293T cells

B1: N4_mAb 1 (antibody, human IgG1, V domains shown, not shown: a dimerising Fc or GST)
VH: QVQLKQSGPGLVQPSQSLSITCTVSGFSLTNYGVNWVRQPPGKGLEWLGVIWSGGSTDYNAAFISRLSISKDISKSQVFFKMNSLQADDTAKYYCAREGYDGYAMDYWGQGTSVTVSS
VL: DIQMTQSPASLSVSVGETVTITCRASENIFSSLAWYQQKQGKSPQLLVYGATNLADGVPSRFSGSGSGTQYSLKINSLQSEDFGTYWCQHFWGNPWTFGGGTKLEIK
- binding: no binding
